Measured values reported in publication PMC10483240.
These are yes or no findings as the source states them, for the method shown. In cells and extracts the contact can be indirect. Some binding calls cover weakened binding; strength is not graded here.

The chains behind the UniProt entries cited, without tags or fusion partners.
UniProt P14873: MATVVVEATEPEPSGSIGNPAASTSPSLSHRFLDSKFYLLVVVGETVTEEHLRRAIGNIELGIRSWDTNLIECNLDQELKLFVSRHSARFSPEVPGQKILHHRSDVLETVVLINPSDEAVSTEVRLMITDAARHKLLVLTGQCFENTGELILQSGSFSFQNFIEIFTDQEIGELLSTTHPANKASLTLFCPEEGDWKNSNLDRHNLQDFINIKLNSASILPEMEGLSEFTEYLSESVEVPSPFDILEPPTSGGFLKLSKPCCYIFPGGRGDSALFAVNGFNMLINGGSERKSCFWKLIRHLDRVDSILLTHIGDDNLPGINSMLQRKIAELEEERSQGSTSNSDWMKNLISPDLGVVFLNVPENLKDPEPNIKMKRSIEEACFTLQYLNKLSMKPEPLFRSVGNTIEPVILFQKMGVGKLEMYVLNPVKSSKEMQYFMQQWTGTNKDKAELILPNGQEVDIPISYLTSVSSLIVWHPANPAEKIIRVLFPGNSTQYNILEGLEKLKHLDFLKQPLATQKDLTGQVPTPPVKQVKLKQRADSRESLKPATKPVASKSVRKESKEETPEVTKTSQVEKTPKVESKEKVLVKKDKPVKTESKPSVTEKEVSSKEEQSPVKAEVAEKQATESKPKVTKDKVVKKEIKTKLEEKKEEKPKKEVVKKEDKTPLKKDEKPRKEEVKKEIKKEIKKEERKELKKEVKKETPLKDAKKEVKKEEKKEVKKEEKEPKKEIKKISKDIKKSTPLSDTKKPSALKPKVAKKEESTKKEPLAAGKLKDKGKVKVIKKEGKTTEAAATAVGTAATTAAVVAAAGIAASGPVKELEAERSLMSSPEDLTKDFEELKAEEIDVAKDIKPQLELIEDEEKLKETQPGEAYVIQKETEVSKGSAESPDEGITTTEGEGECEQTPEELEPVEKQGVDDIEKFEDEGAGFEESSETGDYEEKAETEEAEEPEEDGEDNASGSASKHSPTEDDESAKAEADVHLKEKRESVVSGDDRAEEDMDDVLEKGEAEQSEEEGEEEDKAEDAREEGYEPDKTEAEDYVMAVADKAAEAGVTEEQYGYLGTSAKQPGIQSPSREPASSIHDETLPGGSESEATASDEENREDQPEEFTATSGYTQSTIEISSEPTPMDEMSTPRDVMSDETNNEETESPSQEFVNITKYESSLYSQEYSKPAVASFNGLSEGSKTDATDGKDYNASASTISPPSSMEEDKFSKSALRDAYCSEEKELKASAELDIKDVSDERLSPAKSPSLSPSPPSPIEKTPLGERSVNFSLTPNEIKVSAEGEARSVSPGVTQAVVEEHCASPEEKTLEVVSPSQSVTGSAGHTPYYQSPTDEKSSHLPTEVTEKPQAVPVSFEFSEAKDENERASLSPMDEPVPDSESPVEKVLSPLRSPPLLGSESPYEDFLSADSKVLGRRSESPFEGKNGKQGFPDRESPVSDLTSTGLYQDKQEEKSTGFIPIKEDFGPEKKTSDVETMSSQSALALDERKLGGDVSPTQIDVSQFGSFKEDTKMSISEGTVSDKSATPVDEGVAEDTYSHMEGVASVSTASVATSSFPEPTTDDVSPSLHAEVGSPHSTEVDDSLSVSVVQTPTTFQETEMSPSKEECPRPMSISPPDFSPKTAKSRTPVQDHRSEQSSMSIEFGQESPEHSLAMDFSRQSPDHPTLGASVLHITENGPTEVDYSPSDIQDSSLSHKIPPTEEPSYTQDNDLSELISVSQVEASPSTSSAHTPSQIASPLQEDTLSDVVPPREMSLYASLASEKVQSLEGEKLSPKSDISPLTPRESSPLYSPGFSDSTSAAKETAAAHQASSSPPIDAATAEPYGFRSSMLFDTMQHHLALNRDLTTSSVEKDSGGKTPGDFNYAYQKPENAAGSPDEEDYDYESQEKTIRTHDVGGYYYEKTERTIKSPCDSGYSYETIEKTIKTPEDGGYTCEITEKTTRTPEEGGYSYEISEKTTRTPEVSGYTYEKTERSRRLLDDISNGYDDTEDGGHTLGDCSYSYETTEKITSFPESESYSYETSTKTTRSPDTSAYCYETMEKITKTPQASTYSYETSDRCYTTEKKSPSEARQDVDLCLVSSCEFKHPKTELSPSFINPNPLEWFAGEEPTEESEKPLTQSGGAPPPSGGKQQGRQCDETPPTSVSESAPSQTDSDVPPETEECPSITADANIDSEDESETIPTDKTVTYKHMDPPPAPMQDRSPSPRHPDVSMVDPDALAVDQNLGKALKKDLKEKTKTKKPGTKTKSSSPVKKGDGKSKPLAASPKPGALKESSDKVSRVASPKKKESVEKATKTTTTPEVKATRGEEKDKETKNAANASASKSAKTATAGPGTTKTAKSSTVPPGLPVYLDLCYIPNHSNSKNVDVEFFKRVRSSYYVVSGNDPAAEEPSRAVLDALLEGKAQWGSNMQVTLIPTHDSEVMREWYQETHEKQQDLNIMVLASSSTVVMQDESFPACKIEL

Key:
Experiment in all cases: co-IP; antibody against the partner (anti-STX7, anti-LYZL4, anti-MAP1B, anti-Cathepsin Z, anti-AP1M1, anti-AP2B1, anti-AP3D1; rabbit or mouse control) on protein G beads; mouse testis homogenate in 125 mM KCl, 10 mM EDTA, 20 mM HEPES pH 7.2, supernatant with 1% NP-40 alternative; Western blot for inceptor
[1] = target: T1, syntaxin 7 (STX7) (mouse (endogenous in testis)) (UniProt O70439)
T1 sequence: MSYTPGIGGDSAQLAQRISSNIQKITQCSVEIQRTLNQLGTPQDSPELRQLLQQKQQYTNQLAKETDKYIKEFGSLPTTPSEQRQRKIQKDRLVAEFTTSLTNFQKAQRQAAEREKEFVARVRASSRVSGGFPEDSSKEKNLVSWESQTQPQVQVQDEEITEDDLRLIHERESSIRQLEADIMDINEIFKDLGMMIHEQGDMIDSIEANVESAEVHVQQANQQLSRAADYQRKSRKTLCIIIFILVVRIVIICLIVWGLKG

[2] = target: T2, Lysozyme-like 4 (LYZL4) (mouse (endogenous in testis)) (UniProt Q9D925)
T2 sequence: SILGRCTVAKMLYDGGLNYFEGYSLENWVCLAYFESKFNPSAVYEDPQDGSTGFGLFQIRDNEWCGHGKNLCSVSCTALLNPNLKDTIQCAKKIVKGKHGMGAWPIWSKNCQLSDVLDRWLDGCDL

[3] = target: microtubule-associated protein 1B (MAP1B) (mouse (endogenous in testis)) (UniProt P14873)

Measured: binding

B1: insulin inhibitory receptor (inceptor) (receptor, UniProt A2AFS3 36-1009)
chain: FQVTLGTGPELHACKESEYHFEYTACDSTGSRWRVAVPHSPGLCTSLPDPVKGTECSFSCNAGEFLDMKDQSCKPCAEGRYSLGTGIRFDEWDELPHGFASLSANLEVDDSISESTENCTSSKWVPRGDYIASNTDECTATLMYAVNLKQSGTVNFEYYYPDSSIIFEFFVQNDQCQPSADDSRWMKTTEKGWVELNRGNNVLYWRTTAFSVWSKVSKPVLVRNIAITGVAYTSECFPCKPGTYAAKQGSPFCKLCPANYYSNKGETSCHPCDADKYSEKGSSTCKVRPACTDKDYFYTHTACDAQGETQLMYKWAIPKICGEDLEGAVKLPASGVKTRCPPCNPGFFKTDNSTCEPCPYGSYSNGSDCTHCPAGTEPAVGFEYKWWNTLPSNMETTVLSGINFEYKGLTGWEVAGDHIYTAVGASDNDFMILTLVVPGFRPPQSVVADTENKEVARITFVFETICSVNCELYFMVGMNSRTNTPVETWKGTKGKQSYTYTIEENATVSFTWAFQRTTLHETGRKYTNDVAKIYSINVTNVMGGVASYCRPCALEASDLGSSCTSCPAGHYINRDSGTCHLCPSNTILKAHQPYGAQACVPCGPGTKNNKIHSLCYNDCTFSRNTPSRIFNYNFSALAGTVSLAGVPSFTSKGLKYFHHFTLSLCGNQGKKMAVCTDNVTDLRIPDGEAGFSKSVTAYVCQVVIIPSEVMGYKAGVSSQPVSLADRLVGVSTDMTLEGIVSPVELFHPETSGIPDIVFFFRSNDVTQSCSSGRSTTIRLRCNPMKAAPGTLRLPSMCSDGTCDGCNFHFLWESVAACPLCSASDYHTFVSSCVAGIQKTTYMWREPKLCSGGISLPEQRVTICKTIDFWLKVGISAGTCTAILLTVLTCYFWKKNQKLEYKYSKLVMNATLKDCDLPAADSCAIMEGEDVEDDFIFTSKKSLFGKIKSFTSKRTPDGFDSVPLKTSSGGPDMDM
binds: all assays above
